The target of assay [1] is pM-RXRWT (Gal4 DNA-binding domain fused to full-length human RXR) (human). The experiment in a line: two-hybrid; mammalian 2-hybrid in HepG2 cells; pVP16-VDR as prey, pM-RXR as bait; 5XGal4-TATA-Luc reporter; 120 nM 1,25D3 for 24 h; with cotransfected pSG5-SRC1.
Assay [2] addresses pM-SRC1(241-386) (Gal4 DNA-binding domain fused to the NR box of human SRC1) (human). The assay is described as follows: two-hybrid; mammalian 2-hybrid in HepG2 cells; pVP16-VDR as prey, pM-SRC1, pM-GRIP1 or pM-ACTR as bait; 5XGal4-TATA-Luc reporter; 120 nM 1,25D3 for 24 h; with cotransfected pCDNA-RXRWT.
Assay [3] has as its target pM-RXRWT (Gal4 DNA-binding domain fused to full-length human RXR) (human). The assay is described as follows: two-hybrid; mammalian 2-hybrid in HepG2 cells; pVP16-VDR as prey, pM-RXR (Gal4 DNA-binding domain fusion) as bait; 5XGal4-TATA-Luc reporter; 120 nM 1,25D3 for 24 h; without cotransfected pSG5-SRC1.
The target in assay [4] is pM-SRC1(241-386) (Gal4 DNA-binding domain fused to the NR box of human SRC1) (human). The assay is described as follows: two-hybrid; mammalian 2-hybrid in HepG2 cells; pVP16-VDR as prey, pM-SRC1, pM-GRIP1 or pM-ACTR (NR box fused to the Gal4 DNA-binding domain) as bait; 5XGal4-TATA-Luc reporter; 120 nM 1,25D3 for 24 h; without cotransfected pCDNA-RXRWT.
Assay [5] has as its target recombinant full-length RXRWT (polyhistidine-tagged) (human). The experiment in a line: native gel or EMSA; 100 ng recombinant VDR and 100 ng recombinant RXRWT with 1 pmol Cy5-labelled VDRE oligo (canonical or CYP3A4 XREM); 100 nM 1,25D3 or ethanol; 25°C; 100 mM KCl, 10 mM HEPES, 20 mM MgCl2, pH 7.6; 6% native gel; the complex is seen on the DNA; both purified.

These are yes or no findings as the source states them, for the method shown. A result given as binding can be weak or reduced; the word gives no strength. For some assays here: Sequences can lack the tags named with a protein.

B1: pVP16-human VDR (human vitamin D receptor) (receptor, UniProt P11473 1-427)
chain: MEAMAASTSLPDPGDFDRNVPRICGVCGDRATGFHFNAMTCEGCKGFFRRSMKRKALFTCPFNGDCRITKDNRRHCQACRLKRCVDIGMMKEFILTDEEVQRKREMILKRKEEEALKDSLRPKLSEEQQRIIAILLDAHHKTYDPTYSDFCQFRPPVRVNDGGGSHPSRPNSRHTPSFSGDSSSSCSDHCITSSDMMDSSSFSNLDLSEEDSDDPSVTLELSQLSMLPHLADLVSYSIQKVIGFAKMIPGFRDLTSEDQIVLLKSSAIEVIMLRSNESFTMDDMSWTCGNQDYKYRVSDVTKAGHSLELIEPLIKFQVGLKKLNLHEEEHVLLMAICIVSPDRPGVQDAALIEAIQDRLSNTLQTYIRCRHPPPGSHLLYAKMIQKLADLRSLNEEHSKQYRCLSFQPECSMKLTPLVLEVFGNEIS
On to B1, for which the binding entry in assay [1], in assay [2], in assay [3] and in assay [4] was “binds” each time.

B2: recombinant full-length human VDR (pET32a, polyhistidine-tagged) (receptor, UniProt P11473 1-427)
chain: MEAMAASTSLPDPGDFDRNVPRICGVCGDRATGFHFNAMTCEGCKGFFRRSMKRKALFTCPFNGDCRITKDNRRHCQACRLKRCVDIGMMKEFILTDEEVQRKREMILKRKEEEALKDSLRPKLSEEQQRIIAILLDAHHKTYDPTYSDFCQFRPPVRVNDGGGSHPSRPNSRHTPSFSGDSSSSCSDHCITSSDMMDSSSFSNLDLSEEDSDDPSVTLELSQLSMLPHLADLVSYSIQKVIGFAKMIPGFRDLTSEDQIVLLKSSAIEVIMLRSNESFTMDDMSWTCGNQDYKYRVSDVTKAGHSLELIEPLIKFQVGLKKLNLHEEEHVLLMAICIVSPDRPGVQDAALIEAIQDRLSNTLQTYIRCRHPPPGSHLLYAKMIQKLADLRSLNEEHSKQYRCLSFQPECSMKLTPLVLEVFGNEIS
As for B2, the binding entry in assay [5] is “binds”.

The values above are taken from publication PMC4391915.
